According to patent US20170058032A1 (published 2017):
Numbering of substitutions follows the chain as printed. Results are given in words; binding and its absence hold for the method and conditions named. Some entries that bind do so weakly or less than the wild type.

The chains behind the UniProt entries cited, without tags or fusion partners. Where a name states a change or a piece, a line headed by the entry shows the natural chain unless it says otherwise.
UniProt P40259: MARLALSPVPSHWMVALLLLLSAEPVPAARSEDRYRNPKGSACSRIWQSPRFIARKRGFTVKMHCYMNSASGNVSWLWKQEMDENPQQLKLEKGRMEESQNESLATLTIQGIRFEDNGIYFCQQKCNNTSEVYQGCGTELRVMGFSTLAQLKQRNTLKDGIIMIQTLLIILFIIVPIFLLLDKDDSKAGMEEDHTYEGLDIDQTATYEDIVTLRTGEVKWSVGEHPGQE

Legend:
[1] = target: human CD79b on cells (DoHH-2, BJAB, BJAB-luciferase) (human) (UniProt P40259); assay: FACS on DoHH-2 cells
[2] = target: extracellular domain of human CD79b (huCD79becd) (human) (UniProt P40259); assay: phage selection on plate-bound antigen

B1: huMA79b H1-1, Fab (graft variant, SEQ ID NO: 67) (Fab, name in Kabat numbering, V domains shown)
VH: EVQLVESGGGLVQPGGSLRLSCAASGYPFNRYWINWVRQAPGKGLEWVGEILPGGGDTNYNEIFKGRFTISADTSKNTAYLQMNSLRAEDTAVYYCTRRVPVYFDYWGQGTLVTVSS
VL: DIQMTQSPSSLSASVGDRVTITCKASQSVDYDGDSFLNWYQQKPGKAPKLLIYAASNLESGVPSRFSGSGSGTDFTLTISSLQPEDFATYYCQQSNEDPLTFGQGTKVEIKR
[1]
  binding: binds
[2]
  binding: binds

B2: huMA79b graft variant, SEQ ID NO: 53 (Fab, name in Kabat numbering, V domains shown)
VH: B1 VH with P28T, N30S, R31S, N35E
VL: B1 VL with Q93D, S95R, E97A
[2]
  binding: binds

B3: huMA79b graft variant, SEQ ID NO: 54 (Fab, name in Kabat numbering, V domains shown)
VH: B1 VH with N30T, N35S
VL: B1 VL
[2]
  binding: binds
